Paper PMC6026704
These are yes or no findings as the source states them, for the method shown. Binding seen in cells or lysates may run through a third protein. Here binding means that the protein was enriched with, or labelled near, the bait; the list need not be complete. Tags and fused reporters may be left off the sequences shown.

Protein sequences, listed by entry. Tags and fused reporters are not part of them. Lines headed by an entry give the natural chain unless they say otherwise; changes in a name come on top. Chains listed by the source or under a name are the forms on record and can include a tag or linker.
UniProt P17066: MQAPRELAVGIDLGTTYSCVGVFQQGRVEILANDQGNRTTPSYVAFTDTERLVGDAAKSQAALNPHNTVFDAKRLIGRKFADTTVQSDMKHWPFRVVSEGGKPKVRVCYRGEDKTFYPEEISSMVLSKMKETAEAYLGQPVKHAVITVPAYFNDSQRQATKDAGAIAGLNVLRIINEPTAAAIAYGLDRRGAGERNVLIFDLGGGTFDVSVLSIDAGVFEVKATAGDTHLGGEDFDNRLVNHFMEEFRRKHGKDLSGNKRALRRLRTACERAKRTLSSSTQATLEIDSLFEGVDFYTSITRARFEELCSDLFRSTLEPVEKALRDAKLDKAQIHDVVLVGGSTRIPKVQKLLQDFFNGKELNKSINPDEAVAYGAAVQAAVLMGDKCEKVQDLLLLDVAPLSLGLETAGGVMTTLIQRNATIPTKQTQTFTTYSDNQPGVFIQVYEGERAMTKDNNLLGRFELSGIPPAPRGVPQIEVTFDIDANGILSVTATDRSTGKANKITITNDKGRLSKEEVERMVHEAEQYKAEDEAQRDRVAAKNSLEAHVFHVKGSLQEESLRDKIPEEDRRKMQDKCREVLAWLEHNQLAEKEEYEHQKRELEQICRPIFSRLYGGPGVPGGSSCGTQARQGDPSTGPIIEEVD
UniProt P08238: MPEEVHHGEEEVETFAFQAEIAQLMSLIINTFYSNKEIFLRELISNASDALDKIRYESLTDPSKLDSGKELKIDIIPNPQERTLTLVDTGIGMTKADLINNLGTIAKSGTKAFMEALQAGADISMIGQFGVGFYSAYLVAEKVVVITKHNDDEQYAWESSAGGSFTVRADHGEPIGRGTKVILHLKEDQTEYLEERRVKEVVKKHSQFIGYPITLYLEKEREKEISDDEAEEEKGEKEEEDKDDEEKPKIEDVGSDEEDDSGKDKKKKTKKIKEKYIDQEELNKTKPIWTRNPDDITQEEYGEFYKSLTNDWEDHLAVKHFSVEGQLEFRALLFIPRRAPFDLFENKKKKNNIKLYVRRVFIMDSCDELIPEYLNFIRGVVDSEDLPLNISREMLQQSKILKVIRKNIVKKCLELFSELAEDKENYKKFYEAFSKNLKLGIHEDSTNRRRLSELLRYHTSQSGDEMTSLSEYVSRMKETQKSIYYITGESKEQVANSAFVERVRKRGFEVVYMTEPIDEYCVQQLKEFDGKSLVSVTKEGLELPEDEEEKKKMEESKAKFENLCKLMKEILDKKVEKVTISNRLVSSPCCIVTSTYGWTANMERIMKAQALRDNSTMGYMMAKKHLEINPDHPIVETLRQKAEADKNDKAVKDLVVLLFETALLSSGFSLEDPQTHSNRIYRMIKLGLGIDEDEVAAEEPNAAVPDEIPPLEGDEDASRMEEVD
UniProt Q9BQE3: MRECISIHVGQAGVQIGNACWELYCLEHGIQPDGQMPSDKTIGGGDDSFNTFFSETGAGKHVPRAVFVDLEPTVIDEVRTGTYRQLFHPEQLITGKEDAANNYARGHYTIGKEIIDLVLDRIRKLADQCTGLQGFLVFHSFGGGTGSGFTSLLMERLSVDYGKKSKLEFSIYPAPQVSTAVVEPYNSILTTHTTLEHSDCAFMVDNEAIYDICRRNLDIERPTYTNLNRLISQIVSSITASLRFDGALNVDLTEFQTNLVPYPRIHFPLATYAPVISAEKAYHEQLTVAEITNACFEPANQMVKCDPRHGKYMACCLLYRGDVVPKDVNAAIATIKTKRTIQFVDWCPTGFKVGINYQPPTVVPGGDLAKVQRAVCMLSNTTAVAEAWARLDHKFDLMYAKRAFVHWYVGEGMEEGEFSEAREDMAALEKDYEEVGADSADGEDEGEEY
UniProt P04406: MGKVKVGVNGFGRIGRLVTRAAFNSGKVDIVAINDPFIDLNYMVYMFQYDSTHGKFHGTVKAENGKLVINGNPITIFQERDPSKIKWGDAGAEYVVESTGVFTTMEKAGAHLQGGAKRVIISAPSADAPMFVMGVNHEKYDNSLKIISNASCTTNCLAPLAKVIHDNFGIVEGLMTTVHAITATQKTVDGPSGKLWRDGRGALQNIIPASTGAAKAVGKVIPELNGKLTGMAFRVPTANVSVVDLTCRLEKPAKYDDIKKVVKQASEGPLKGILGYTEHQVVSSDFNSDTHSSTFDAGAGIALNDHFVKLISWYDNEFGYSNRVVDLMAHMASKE
UniProt P68371: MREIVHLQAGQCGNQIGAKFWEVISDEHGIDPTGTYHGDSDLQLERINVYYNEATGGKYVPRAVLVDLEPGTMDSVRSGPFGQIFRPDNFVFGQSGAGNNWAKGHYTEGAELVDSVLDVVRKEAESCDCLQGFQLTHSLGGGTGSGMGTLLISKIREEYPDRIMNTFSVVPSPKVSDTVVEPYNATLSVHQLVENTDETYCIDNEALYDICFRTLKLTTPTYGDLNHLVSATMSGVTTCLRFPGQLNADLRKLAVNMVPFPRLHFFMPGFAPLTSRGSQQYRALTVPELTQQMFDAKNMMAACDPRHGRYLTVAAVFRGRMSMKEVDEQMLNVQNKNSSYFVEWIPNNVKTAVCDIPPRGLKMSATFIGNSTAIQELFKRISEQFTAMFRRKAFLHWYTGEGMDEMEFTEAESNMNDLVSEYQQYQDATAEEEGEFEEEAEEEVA
UniProt P07437: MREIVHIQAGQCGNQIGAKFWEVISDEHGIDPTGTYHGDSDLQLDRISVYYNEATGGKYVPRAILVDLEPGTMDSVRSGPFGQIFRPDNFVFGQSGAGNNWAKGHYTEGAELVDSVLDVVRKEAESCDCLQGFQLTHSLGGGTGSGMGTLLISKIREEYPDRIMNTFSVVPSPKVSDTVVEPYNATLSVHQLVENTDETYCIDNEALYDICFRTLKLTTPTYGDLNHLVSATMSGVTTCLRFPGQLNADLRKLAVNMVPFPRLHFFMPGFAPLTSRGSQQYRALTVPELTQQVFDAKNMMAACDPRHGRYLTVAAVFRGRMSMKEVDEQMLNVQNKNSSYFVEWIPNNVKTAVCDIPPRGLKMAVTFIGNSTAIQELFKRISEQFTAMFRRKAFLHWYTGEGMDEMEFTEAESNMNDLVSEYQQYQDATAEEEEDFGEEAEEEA
UniProt Q04760: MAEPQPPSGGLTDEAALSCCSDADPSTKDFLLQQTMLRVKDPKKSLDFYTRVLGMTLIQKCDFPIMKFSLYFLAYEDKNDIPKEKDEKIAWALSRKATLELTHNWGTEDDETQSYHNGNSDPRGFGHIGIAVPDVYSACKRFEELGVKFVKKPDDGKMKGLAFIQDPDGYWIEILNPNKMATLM
UniProt P0DMV8: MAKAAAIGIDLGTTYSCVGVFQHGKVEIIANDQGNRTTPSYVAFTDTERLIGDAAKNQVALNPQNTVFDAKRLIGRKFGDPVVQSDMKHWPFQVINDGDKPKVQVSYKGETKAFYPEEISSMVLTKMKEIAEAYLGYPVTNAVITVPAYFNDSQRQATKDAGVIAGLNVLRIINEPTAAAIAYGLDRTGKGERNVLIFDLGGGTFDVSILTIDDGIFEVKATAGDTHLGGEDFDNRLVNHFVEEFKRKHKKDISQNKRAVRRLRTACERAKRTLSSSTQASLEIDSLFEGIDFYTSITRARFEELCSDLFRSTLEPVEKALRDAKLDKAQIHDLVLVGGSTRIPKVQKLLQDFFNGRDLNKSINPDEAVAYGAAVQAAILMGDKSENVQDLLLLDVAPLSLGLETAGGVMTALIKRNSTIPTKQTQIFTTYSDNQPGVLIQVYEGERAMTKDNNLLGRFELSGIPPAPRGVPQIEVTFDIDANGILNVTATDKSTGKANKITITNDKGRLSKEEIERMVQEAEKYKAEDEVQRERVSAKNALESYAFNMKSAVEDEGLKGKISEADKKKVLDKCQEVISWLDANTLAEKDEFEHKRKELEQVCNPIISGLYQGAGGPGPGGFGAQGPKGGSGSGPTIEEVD
UniProt P68104: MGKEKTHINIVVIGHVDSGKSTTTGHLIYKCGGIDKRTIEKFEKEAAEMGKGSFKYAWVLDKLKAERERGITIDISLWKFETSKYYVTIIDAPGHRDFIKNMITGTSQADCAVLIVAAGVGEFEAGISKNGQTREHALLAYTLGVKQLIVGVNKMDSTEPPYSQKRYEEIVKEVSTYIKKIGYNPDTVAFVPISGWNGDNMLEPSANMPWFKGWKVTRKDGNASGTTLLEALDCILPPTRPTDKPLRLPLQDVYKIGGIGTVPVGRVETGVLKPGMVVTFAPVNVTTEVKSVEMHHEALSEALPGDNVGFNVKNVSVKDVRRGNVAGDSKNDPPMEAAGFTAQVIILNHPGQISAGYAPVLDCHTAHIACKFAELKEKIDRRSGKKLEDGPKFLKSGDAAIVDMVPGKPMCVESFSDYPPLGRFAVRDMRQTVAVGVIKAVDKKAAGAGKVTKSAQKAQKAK
UniProt P06733: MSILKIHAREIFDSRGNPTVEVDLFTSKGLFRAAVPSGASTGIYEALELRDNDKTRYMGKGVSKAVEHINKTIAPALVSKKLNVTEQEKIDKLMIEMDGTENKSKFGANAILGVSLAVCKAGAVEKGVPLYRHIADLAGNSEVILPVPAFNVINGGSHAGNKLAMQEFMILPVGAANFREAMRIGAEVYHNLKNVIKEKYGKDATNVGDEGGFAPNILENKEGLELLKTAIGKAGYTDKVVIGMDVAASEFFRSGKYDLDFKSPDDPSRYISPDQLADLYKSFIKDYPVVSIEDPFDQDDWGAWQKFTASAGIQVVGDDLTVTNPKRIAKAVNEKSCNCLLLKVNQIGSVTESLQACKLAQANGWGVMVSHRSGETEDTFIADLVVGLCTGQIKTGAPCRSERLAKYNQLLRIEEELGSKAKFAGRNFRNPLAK
Nucleophosmin 1, isoform 2 (P06748-2, form named): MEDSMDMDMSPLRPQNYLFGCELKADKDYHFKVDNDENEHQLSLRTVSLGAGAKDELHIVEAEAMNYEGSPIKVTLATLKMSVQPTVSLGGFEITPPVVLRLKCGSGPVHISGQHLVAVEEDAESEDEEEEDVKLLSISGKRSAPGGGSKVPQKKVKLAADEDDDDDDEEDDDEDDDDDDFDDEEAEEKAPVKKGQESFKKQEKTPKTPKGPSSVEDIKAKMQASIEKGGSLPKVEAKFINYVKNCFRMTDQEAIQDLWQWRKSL
UniProt P11142: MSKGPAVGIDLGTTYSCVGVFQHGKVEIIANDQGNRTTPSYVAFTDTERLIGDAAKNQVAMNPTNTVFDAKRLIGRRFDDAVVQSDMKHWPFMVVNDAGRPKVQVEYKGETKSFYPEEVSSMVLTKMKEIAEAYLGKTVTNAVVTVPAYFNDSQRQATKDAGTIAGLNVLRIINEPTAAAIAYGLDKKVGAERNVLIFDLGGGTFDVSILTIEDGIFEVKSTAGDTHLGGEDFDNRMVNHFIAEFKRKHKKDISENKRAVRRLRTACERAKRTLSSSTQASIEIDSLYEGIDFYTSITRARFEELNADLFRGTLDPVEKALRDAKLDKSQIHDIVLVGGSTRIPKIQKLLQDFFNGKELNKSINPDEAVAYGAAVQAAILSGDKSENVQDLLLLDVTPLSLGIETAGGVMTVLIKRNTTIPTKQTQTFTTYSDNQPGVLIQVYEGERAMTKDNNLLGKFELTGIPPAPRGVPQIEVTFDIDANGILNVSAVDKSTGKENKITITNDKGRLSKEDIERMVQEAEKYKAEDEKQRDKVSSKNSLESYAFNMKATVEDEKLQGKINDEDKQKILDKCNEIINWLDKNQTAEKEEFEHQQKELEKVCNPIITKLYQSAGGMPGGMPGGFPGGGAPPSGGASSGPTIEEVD

T1: Suppressor of IKKepsilon (SIKE), WT, FLAG-tagged (pCMVFLAG5a SIKE 6xHis) (human) (UniProt Q9BRV8)
T1 sequence: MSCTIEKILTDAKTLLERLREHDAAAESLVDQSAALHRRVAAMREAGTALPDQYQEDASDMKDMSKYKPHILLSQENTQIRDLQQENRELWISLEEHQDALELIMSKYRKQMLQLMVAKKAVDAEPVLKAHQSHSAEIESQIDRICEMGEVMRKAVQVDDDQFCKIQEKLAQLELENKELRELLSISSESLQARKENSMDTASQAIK


What follows are molecules tested against T1, Suppressor of IKKepsilon (SIKE), WT, FLAG-tagged (pCMVFLAG5a SIKE 6xHis) (human) (assay: affinity purification with mass spectrometry; FLAG-tagged SIKE precipitated from HEK293 lysate (5 mg protein) with anti-FLAG M2 affinity gel overnight at 4 °C, washed with TBS, eluted with FLAG peptide, tryptic digest, LC-MS/MS; basal or dsRNA (50 ug/mL pI:pC, 3 h) stimulated cells).

Molecule | binding
Heat shock 70-kDa protein 6 (from UniProt P17066 1-643) | binds
Heat shock protein HSP 90-beta (from UniProt P08238 1-724) | binds
Tubulin alpha-1C chain (from UniProt Q9BQE3 1-449) | binds
Glyceraldehyde-3-phosphate dehydrogenase (from UniProt P04406 1-335) (enzyme) | binds
Tubulin beta-4B chain (from UniProt P68371 1-445) | binds
Tubulin beta chain (from UniProt P07437 1-444) | binds
Lactoylglutathione lyase (from UniProt Q04760 1-184) (enzyme) | binds
Heat shock 70-kDa protein 1A/1B (from UniProt P0DMV8 1-641) | binds
Elongation factor 1-alpha 1 (from UniProt P68104 1-462) | binds
Alpha-enolase (from UniProt P06733 1-434) (enzyme) | binds
Nucleophosmin 1, isoform 2 (from UniProt P06748-2 1-265) | binds
Heat shock cognate 71-kDa protein (from UniProt P11142 1-646) | binds
Treacle protein (protein, UniProt Q13428 1-1488) MAEARKRRELLPLIYHHLLRAGYVRAAREVKEQSGQKCFLAQPVTLLDIYTHWQQTSELGRKRKAEEDAALQAKKTRVSDPISTSESSEEEEEAEAETAKATPRLASTNSSVLGADLPSSMKEKAKAETEKAGKTGNSMPHPATGKTVANLLSGKSPRKSAEPSANTTLVSETEEEGSVPAFGAAAKPGMVSAGQADSSSEDTSSSSDETDVEGKPSVKPAQVKASSVSTKESPARKAAPAPGKVGDVTPQVKGGALPPAKRAKKPEEESESSEEGSESEEEAPAGTRSQVKASEKILQVRAASAPAKGTPGKGATPAPPGKAGAVASQTKAGKPEEDSESSSEESSDSEEETPAAKALLQAKASGKTSQVGAASAPAKESPRKGAAPAPPGKTGPAVAKAQAGKREEDSQSSSEESDSEEEAPAQAKPSGKAPQVRAASAPAKESPRKGAAPAPPRKTGPAAAQVQVGKQEEDSRSSSEESDSDREALAAMNAAQVKPLGKSPQVKPASTMGMGPLGKGAGPVPPGKVGPATPSAQVGKWEEDSESSSEESSDSSDGEVPTAVAPAQEKSLGNILQAKPTSSPAKGPPQKAGPVAVQVKAEKPMDNSESSEESSDSADSEEAPAAMTAAQAKPALKIPQTKACPKKTNTTASAKVAPVRVGTQAPRKAGTATSPAGSSPAVAGGTQRPAEDSSSSEESDSEEEKTGLAVTVGQAKSVGKGLQVKAASVPVKGSLGQGTAPVLPGKTGPTVTQVKAEKQEDSESSEEESDSEEAAASPAQVKTSVKKTQAKANPAAARAPSAKGTISAPGKVVTAAAQAKQRSPSKVKPPVRNPQNSTVLARGPASVPSVGKAVATAAQAQTGPEEDSGSSEEESDSEEEAETLAQVKPSGKTHQIRAALAPAKESPRKGAAPTPPGKTGPSAAQAGKQDDSGSSSEESDSDGEAPAAVTSAQVIKPPLIFVDPNRSPAGPAATPAQAQAASTPRKARASESTARSSSSESEDEDVIPATQCLTPGIRTNVVTMPTAHPRIAPKASMAGASSSKESSRISDGKKQEGPATQVSKKNPASLPLTQAALKVLAQKASEAQPPVARTQPSSGVDSAVGTLPATSPQSTSVQAKGTNKLRKPKLPEVQQATKAPESSDDSEDSSDSSSGSEEDGEGPQGAKSAHTLGPTPSRTETLVEETAAESSEDDVVAPSQSLLSGYMTPGLTPANSQASKATPKLDSSPSVSSTLAAKDDPDGKQEAKPQQAAGMLSPKTGGKEAASGTTPQKSRKPKKGAGNPQASTLALQSNITQCLLGQPWPLNEAQVQASVVKVLTELLEQERKKVVDTTKESSRKGWESRKRKLSGDQPAARTPRSKKKKKLGAGEGGEASVSPEKTSTTSKGKAKRDKASGDVKEKKGKGSLGSQGAKDEPEEELQKGMGTVEGGDQSNPKSKKEKKKSDKRKKDKEKKEKKKKAKKASTKDSESPSQKKKKKKKKTAEQTV | binds
UPF0568 protein C14orf166 (protein, UniProt Q9Y224 1-244) MFRRKLTALDYHNPAGFNCKDETEFRNFIVWLEDQKIRHYKIEDRGNLRNIHSSDWPKFFEKYLRDVNCPFKIQDRQEAIDWLLGLAVRLEYGDNAEKYKDLVPDNSKTADNATKNAEPLINLDVNNPDFKAGVMALANLLQIQRHDDYLVMLKAIRILVQERLTQDAVAKANQTKEGLPVALDKHILGFDTGDAVLNEAAQILRLLHIEELRELQTKINEAIVAVQAIIADPKTDHRLGKVGR | binds
